Test results published in doi:10.1101/863738.

Experiments:
Assay in all cases: two-hybrid
BLR38 (Bremia lactucae) = target: T1, BLR38 (Bremia lactucae)
T1 sequence: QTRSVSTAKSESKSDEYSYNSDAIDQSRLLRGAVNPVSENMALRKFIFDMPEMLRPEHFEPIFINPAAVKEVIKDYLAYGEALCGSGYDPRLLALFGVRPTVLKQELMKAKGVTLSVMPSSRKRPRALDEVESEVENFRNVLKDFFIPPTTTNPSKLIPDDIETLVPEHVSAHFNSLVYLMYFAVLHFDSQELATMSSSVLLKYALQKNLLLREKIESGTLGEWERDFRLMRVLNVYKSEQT

BLR08 (Bremia lactucae) = target: T2, BLR08 (Bremia lactucae) (UniProt P0CU87)
T2 sequence: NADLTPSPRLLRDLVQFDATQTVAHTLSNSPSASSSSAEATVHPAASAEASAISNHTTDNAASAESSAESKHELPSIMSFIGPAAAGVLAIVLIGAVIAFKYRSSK

BLR05 (Bremia lactucae) = target: T3, BLR05 (Bremia lactucae) (UniProt P0CU86)
T3 sequence: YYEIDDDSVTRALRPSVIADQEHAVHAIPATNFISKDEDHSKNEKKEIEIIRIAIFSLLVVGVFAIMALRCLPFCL

BLN04 (Bremia lactucae) = target: T4, BLN04 (Bremia lactucae)
T4 sequence: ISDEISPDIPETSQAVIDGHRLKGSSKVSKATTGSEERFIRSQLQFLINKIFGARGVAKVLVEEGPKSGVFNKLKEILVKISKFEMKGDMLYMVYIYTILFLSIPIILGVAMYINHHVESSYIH

BLR09 (Bremia lactucae) = target: T5, BLR09 (Bremia lactucae) (UniProt P0CU88)
T5 sequence: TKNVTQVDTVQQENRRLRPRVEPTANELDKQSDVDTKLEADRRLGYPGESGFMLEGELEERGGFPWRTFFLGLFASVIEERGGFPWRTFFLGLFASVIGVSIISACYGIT

Substance	binding (BLR38 (Bremia lactucae))	binding (BLR08 (Bremia lactucae))	binding (BLR05 (Bremia lactucae))	binding (BLN04 (Bremia lactucae))	binding (BLR09 (Bremia lactucae))
LsFLX-like2 (Lactuca sativa)	binds				
LsNAC069 (Lactuca sativa)		binds	binds	binds	binds

No constants are given. Whether binding was seen depends on the method and setting. A result given as binding can be weak or reduced; the word gives no strength.
